Our source for the binding values is PMC9413943.

Sequences of proteins named here, by UniProt entry; tags and fusion partners are left off.
UniProt Q99497: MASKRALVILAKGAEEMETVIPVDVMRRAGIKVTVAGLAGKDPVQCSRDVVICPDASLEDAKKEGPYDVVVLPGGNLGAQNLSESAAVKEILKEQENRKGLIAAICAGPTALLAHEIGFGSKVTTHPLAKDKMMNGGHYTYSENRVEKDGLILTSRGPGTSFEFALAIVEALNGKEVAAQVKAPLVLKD
UniProt P84022: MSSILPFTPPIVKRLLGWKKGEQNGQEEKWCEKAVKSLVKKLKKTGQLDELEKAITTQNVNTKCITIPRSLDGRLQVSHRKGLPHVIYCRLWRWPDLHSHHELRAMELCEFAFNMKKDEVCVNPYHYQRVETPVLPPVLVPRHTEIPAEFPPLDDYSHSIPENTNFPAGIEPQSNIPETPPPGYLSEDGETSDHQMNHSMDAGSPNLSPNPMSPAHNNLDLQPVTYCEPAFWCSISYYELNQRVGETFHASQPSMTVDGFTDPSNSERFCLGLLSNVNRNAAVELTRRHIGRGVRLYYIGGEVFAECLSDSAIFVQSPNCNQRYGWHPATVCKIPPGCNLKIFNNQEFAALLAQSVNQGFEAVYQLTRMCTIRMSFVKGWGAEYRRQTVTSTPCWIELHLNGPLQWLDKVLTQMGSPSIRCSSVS
UniProt P11142: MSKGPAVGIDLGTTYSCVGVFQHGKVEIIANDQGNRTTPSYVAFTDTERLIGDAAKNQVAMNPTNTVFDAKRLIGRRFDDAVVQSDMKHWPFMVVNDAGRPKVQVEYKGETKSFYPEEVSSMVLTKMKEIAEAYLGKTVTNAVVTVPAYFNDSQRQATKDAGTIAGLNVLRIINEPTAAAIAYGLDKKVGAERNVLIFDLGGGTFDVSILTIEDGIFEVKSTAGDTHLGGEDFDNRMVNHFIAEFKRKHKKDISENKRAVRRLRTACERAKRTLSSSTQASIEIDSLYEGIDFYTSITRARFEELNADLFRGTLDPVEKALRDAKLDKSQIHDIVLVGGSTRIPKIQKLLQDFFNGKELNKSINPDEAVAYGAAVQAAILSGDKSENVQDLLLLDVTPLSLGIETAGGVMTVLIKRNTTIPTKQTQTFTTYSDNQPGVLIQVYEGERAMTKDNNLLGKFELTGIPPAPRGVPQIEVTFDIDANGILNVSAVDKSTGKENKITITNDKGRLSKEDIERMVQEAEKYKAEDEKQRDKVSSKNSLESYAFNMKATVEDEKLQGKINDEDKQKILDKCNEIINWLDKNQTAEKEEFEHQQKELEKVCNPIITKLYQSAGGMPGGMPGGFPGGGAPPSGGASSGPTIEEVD

Results are given in words; binding and its absence hold for the method and conditions named. In cells and extracts the contact can be indirect. Some results given as binding are weak or reduced against the parent protein; the word gives no strength.

The target of assay [1] is Human PARK7/DJ1 protein (His-tag), recombinant, exogenous DJ-1 (human) (UniProt Q99497). Kind of assay: co-IP; ESCC cells with exogenous DJ-1; RIPA lysates, antibody overnight at 4 °C, Protein-A magnetic beads, western blot. On the technique in general: In western blotting, separated proteins are transferred to a membrane and probed.
Assay [2] concerns the target Smad3 (Mothers against decapentaplegic homolog 3) (human (endogenous in KYSE-150 and ECA-109)) (UniProt P84022). Briefly: co-IP; K150 and E109 cells treated for 30 min with or without exogenous DJ-1; lysates immunoprecipitated with anti-HSC70 or anti-Smad3 antibody, western blot for HSC70 and Smad3.
Assay [3] addresses HSC70/HSPA8 (Heat shock cognate 71 kDa protein) (human (endogenous in KYSE-150 and ECA-109)) (UniProt P11142). The assay is described as above.

In the case of “HSC70/HSPA8 (Heat shock cognate 71 kDa protein) (from UniProt P11142 1-646)”, the binding entry in assay [1] and in assay [2] was “binds” each time.

With “Smad3 (Mothers against decapentaplegic homolog 3) (from UniProt P84022 1-425)”, the binding entry in assay [3] is reported as “binds”.
